# Data taken from patent US20260345771A1, “THERAPY COMPRISING ANTI-CD19 ANTIBODY AND EZH2 MODULATORS” (Incyte Corporation, priority 2022, published 2026).
# Assays:
# [1] = test system: SU-DHL-4 cells; test: CellTiter-Glo (CTG) viability assay, SU-DHL-4; type: cell-based; conditions: Homo sapiens, SU-DHL-4, 168 h
# Description: (§1) A panel of 6 lymphoma cell lines was included in the analysis (5 DLBCL and 1 Burkitt lymphoma). All cell lines were cultured in RPMI 1640 medium (Gibco) supplemented with 10%-20% FCS (Sigma) at 37 °C in 5% CO2.
# (§2) To analyze direct cytotoxic and anti-proliferative effects on target cells, cell viability assays were performed using the CellTiter-Glo Kit (Promega), a luminescence assay for determination of viable cell number based on quantification of adenosine triphosphate (ATP) levels. […]
# (§3) Cell viability was analyzed according to the manufacturer's protocol using the Tecan Infinite F500 plate reader. The relative viable cell count was calculated from the measured relative luminescence units (RLU) with the following equation: […]
# (§4) For graphical illustration and IC50 determination, the mean values of triplicates (viability assay) or duplicates (CD19 expression) of the individual experiments were imported into GraphPad Prism software (version 8). […] IC50 curves were determined applying a non-linear regression curve fit model (sigmoidal dose response, variable slope). […]
# (§5) The grand mean RLU values were calculated for. • untreated samples via e^μ • tafasitamab treated samples via e^(μ+α) • Compound 1 treated samples via e^(μ+β) • tafasitamab+Compound 1 treated samples via e^(μ+α+β+αβ) […]
# [2] = test system: SU-DHL-6 cells; test: CellTiter-Glo (CTG) viability assay, SU-DHL-6; type: cell-based; conditions: Homo sapiens, 168 h; SU-DHL-6, 7 days, compound alone
# Description: as §1, §2, §3, §4, §5
smiles,measurement,setting,value
"CCN(c1cc(-c2ccc(CN3CCOCC3)cc2)cc(C(=O)NCc2c(C)cc(C)[nH]c2=O)c1C)C1CCOCC1 [tazemetostat, reference compound]",IC50,[1],792 nM
same,IC50,[2],97.4 nM
